Source: the supplement of paper PMC5407854, “Inhibitor of ppGalNAc-T3-mediated O-glycosylation blocks cancer cell invasiveness and lowers FGF23 levels” (eLife, 2017)
Some of the results follow. Most entries show no effect beyond the scatter of the controls.

What follows are molecules tested on ppGalNAc-T3 sensor (assay: T3 sensor activation Q score (MG/GFP ratio z-score vs DMSO controls) (SD units); higher = more sensor activation (inhibition of ppGalNAc-T3 glycosylation)). Conditions: HEK293 sensor cells; 10 µM; 6 h.
Method: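 Cells were treated with compound at 10 uM for 6 h, then MG/GFP ratio was read by flow cytometry (10,000 cells per well, duplicate wells). Q = (R - R_neg)/SD_neg relative to DMSO vehicle controls; the signal rises when the glycosyltransferase is inhibited.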

Row | Compound | T3 sensor activation Q score
1 | COc1cc2c(cc1OC)CN(Cc1ccccc1F)CC2 | 0.43
2 | CCNc1nc(NC(C)C)nc(N2CCCC2)n1 | -0.555
3 | Nc1nc(N)nc(-c2ccccc2)n1 | 0.45
4 | COc1cccc(Nc2nc(-c3ccc(F)cc3)cs2)c1 | 0.51
5 | O=[N+]([O-])c1ccc(S(=O)(=O)Nc2ccc(F)cc2)cc1 | 0.16
6 | COc1ccc2c(Cl)c(C(=O)N3CCCCC3)sc2c1 | 0.455
7 | CC1(c2ccccc2)CC(C)(C)N2C(=O)Cc3cccc1c32 (stereo not given) | -0.365
8 | COc1ccc(OCc2nc3ccccc3[nH]2)cc1 | -0.885
9 | CCOc1cc(CN(C)CCN(C)C)ccc1O | -0.25
10 | Cc1cccc(Cn2ncc(O)c(Cl)c2=O)c1 | -0.3
11 | CC(C)c1ccc(C(=O)c2ccccc2C(=O)O)cc1 | 1.27
12 | CC(=O)C1=C(O)C(=O)N(c2ccccn2)C1c1ccccc1F (stereo not given) | 0.36
13 | Nc1nnc(CCc2ccccc2)s1 | 0.385
14 | CCOc1ccc(N=C(c2cccc([N+](=O)[O-])c2)N2CCOCC2)cc1 | 0.065
15 | O=C(CCc1ccccc1)Nc1ccc(F)cc1F | 0.455
16 | COc1ccc(CNN)c(OC)c1 | 0.8
17 | O=C(O)c1ccc(C(=O)O)c(-c2ccccc2)c1 | 1.5
18 | Cc1cccc(NC2=C([N+](=O)[O-])CS(=O)(=O)C2)c1 | -0.39
19 | c1ccc2c(c1)nc(N1CCCC1)n2CCN1CCCCC1 | -0.635
20 | COc1cc(OC)c(OC)cc1CN1CCN(c2cccc(Cl)c2)CC1 | 0.355

Sorted by length of the SMILES (ascending): part of the list above.
Row | Compound | T3 sensor activation Q score
3 | Nc1nc(N)nc(-c2ccccc2)n1 | 0.45
7 | CC1(c2ccccc2)CC(C)(C)N2C(=O)Cc3cccc1c32 (stereo not given) | -0.365
14 | CCOc1ccc(N=C(c2cccc([N+](=O)[O-])c2)N2CCOCC2)cc1 | 0.065

(next part)

Row | Compound | T3 sensor activation Q score
21 | CCN1CCN(C2CC(=O)N(c3ccc(F)cc3)C2=O)CC1 (stereo not given) | -0.41
22 | O=C(C1CCCCC1)N1CC(=O)N(CCc2ccccc2)C(=O)C1 | 1.15
23 | COc1ccc(-c2cnn(-c3ccccc3)c2N)cc1OC | 0.7
24 | Cc1cccc(N2CCN(Cc3ccc(Br)o3)CC2)c1C | -0.295
25 | COc1ccc2c(c1)CCC(C1(O)C(=O)Nc3ccccc31)C2=O (stereo not given) | 0.055
26 | Cc1ccccc1CN(C)CCN(C)C | -0.435
27 | CC(NC(=O)c1ccc(Br)o1)c1ccccc1 (stereo not given) | 0.32
28 | COc1ccc(CN2CCN(c3cc(C)ccc3C)CC2)cc1OC | -0.315
29 | CC(=O)C1=C(O)C(=O)N(c2cccc(C)c2)C1c1ccccc1 (stereo not given) | -0.72
30 | Cc1c(Cc2ccccc2)sc(N)c1C(N)=O | 0.61
31 | Cc1c(C(=O)NC2CC(C)(C)NC(C)(C)C2)cccc1[N+](=O)[O-] | 0.12
32 | Nc1nnc(Cc2ccc([N+](=O)[O-])cc2)s1 | 0.485
33 | CN1c2ccccc2N(C)C1c1ccc2c(c1)OCO2 | 1.05
34 | CCN(CC)C(=O)C1CCCN(Cc2cccc(Br)c2)C1 (stereo not given) | -0.235
35 | Cc1onc(-c2ccccc2)c1C(=O)NN | -0.095
36 | Cc1ccccc1NC1=C(N2CCOCC2)C(=O)c2ccccc2C1=O | -0.535
37 | O=[N+]([O-])c1ccc(C(O)CC(O)C(Cl)(Cl)Cl)cc1 (stereo not given) | -0.265
38 | CSc1nnc(-c2ccccc2Cl)o1 | 0.015
39 | COc1ccc(OC)c(NC(=O)C(c2ccccc2)c2ccccc2)c1 | 0.355
40 | CC(=O)c1ccc(NC(=O)CN2CCCCC2)cc1 | 0.58
